Source: PubChem BioAssay AID1671190 (National Center for Advancing Translational Sciences (NCATS), 2021)
The campaign covered roughly 580,000 compounds. About 6,100 (1.1%) were called active. This list was built around the results that the source calls inconclusive (neither active nor inactive); the mix of calls is not that of the screen. Calls come from the whole dose curve; as a rule, active = well fitted inhibition curve with a large enough effect; inconclusive = small, poorly fitted or top-dose-only effect, or another doubt; inactive = no such curve, though single readings can be large or run the other way. Where the call is inconclusive, the potency comes from a doubtful curve fit.

Protein sequences, listed by entry. Tags and fused reporters are not part of them. Lines headed by an entry give the natural chain unless they say otherwise; changes in a name come on top.
UniProt P18054: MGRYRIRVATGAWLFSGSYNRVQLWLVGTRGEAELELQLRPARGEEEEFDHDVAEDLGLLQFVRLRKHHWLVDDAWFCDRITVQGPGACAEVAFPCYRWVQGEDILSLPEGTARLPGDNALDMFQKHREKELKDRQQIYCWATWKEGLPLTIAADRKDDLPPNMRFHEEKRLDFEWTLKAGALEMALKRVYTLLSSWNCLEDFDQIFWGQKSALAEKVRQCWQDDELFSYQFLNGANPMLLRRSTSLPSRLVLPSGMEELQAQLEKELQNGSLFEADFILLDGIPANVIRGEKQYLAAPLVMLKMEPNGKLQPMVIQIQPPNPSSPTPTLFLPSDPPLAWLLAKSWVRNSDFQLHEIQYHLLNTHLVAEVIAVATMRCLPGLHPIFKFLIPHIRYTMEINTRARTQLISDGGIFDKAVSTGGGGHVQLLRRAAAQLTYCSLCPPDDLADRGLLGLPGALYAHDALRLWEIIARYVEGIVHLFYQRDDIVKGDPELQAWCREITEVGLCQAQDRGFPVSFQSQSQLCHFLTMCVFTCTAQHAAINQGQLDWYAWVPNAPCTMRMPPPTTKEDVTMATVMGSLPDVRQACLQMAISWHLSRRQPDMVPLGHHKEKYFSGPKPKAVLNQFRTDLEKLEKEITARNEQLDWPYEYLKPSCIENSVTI

The compounds below were run against Polyunsaturated fatty acid lipoxygenase ALOX12 (Homo sapiens) (UniProt P18054) (assay: Primary qHTS assay for inhibitors of human arachidonate 12S-lipoxygenase (ALOX12): Round 2). Settings: purified 12hLO, xylenol orange hydroperoxide absorbance; activity change, negative = inhibition: at 108 µM (top of the series) unless noted.
Outline: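 Purified human 12hLO at 150 nM in 25 mM Hepes, 0.01% Triton X-100, pH 7.0, preincubated 15 min at room temperature with compound. Reaction started with 40 uM arachidonic acid, 30 min at room temperature. Hydroperoxide measured by Fe-xylenol orange, 573/405 nm absorbance ratio.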
% is set by controls: 0 for no effect and ±100 for the full control effect; potency is the fitted concentration of half-maximal effect.

| Compound | activity change, negative = inhibition | Potency |
| --- | --- | --- |
| CC(C)(CNC(=O)CC1CCCC1)C(N)=O | inactive: -32.9% | – |
| CCOC(=O)c1ccc(NC(=O)C2Cc3ccccc3CN2S(=O)(=O)c2ccc(Cl)cc2)cc1 (stereo not given) | inactive: -17.8% | – |
| CCNc1ncc2nc(-c3cn(C)c4ccccc34)c(=O)n(Cc3ccc(F)cc3)c2n1 | – | inconclusive: 31.6 µM [inhibitor, partial curve, poor fit] |
| COc1ccc(-c2n[nH]c(=S)n2Cc2ccccc2)cc1 | inactive: -11.2% | – |
| Cn1cc([N+](=O)[O-])c(C(=O)Nc2ccc(-c3nc4ccccc4o3)cc2)n1 | inactive: 30.2% | – |
| COc1cccc(/C=N/NC(=S)Nc2cccc(S(=O)(=O)N(C)C)c2)c1 | – | inconclusive: 112 µM [inhibitor, partial curve, poor fit] |
| Cc1ccc(C(=O)NCC(=O)OCC(=O)c2ccc3c(c2)OCCO3)cc1C | inactive: 0% [at 57.4 µM] | – |
| FC(F)(F)c1ccc(CNCc2ccco2)cc1 | inactive: -3.9% | – |
| CC1(c2ccc(Cl)cc2)NC(=S)N2C1NC(=S)N2c1ccccc1 (stereo not given) | – | inconclusive: 44.7 µM [inhibitor, partial curve, poor fit] |
| O=C(c1cccs1)N1CCN(Cc2cccnc2)CC1 | inactive: -15.6% | – |
| OC(CNC12CC3CC(CC(C3)C1)C2)COc1ccc(Cl)cc1Cl (stereo not given) | – | inconclusive: 31.6 µM [inhibitor, partial curve] |
| COc1ccc(-c2nc(S(=O)(=O)c3ccc4c(c3)OCCO4)c(N(C)C)o2)cc1OC | – | inconclusive: 20 µM [inhibitor, full curve] |
| CCOC(=O)c1c(NC(=O)c2noc3c2CC(C(C)(C)C)CC3)sc2c1CCCC2 (stereo not given) | – | inconclusive: 126 µM [inhibitor, single point] |
| Cc1ccc(C)c(/C=N/NC(=S)NC(C)C)c1 | inactive: -27.7% | – |
| Cc1cc(C)c(Cn2c(C)c(CNCCCc3ccccc3)c(C(=O)O)c2C)c(C)c1 | – | inconclusive: 100 µM [inhibitor, single point] |
| CCCCOCCCNC(=O)C[C@@H]1C[C@@]2(C(=O)OCC)CCCC=C2N(Cc2cccc3ccccc23)C1=O | – | inconclusive: 100 µM [inhibitor, single point] |
| COc1cc(/C=C(\C#N)C(=O)c2c(C)[nH]c3ccccc23)cc(OC)c1OC | – | inconclusive: 50.1 µM [inhibitor, partial curve, poor fit] |
| CN(Cc1cccc(Cl)c1Cl)C(=O)CCc1c[nH]c2ccccc12 | – | inconclusive: 39.8 µM [inhibitor, partial curve, poor fit] |
| COc1ccc(C(=O)Nc2cccnc2Cl)cc1OC | inactive: 6.42% | – |
| O=C(O)Cc1ccc(N2C(=O)C(=O)/C(=C(/O)c3ccccc3Cl)C2c2ccc(C(=O)O)cc2)cc1 (stereo not given) | – | inconclusive: 22.4 µM [inhibitor, partial curve, poor fit] |

Taken from above (2 entries):

| Compound | activity change, negative = inhibition | Potency |
| --- | --- | --- |
| COc1cccc(/C=N/NC(=S)Nc2cccc(S(=O)(=O)N(C)C)c2)c1 | – | inconclusive: 112 µM [inhibitor, partial curve, poor fit] |
| Cc1ccc(C(=O)NCC(=O)OCC(=O)c2ccc3c(c2)OCCO3)cc1C | inactive: 0% [at 57.4 µM] | – |
